According to PMC6220109:
Results are given in words; binding and its absence hold for the method and conditions named. In cells and extracts the contact can be indirect. Binding can be weak; no strength is given. Sequences can lack the tags named with a protein.

By UniProt entry, the sequences of proteins in these tests, tags left out. Where a name states a change or a piece, a line headed by the entry shows the natural chain unless it says otherwise.
UniProt P36874: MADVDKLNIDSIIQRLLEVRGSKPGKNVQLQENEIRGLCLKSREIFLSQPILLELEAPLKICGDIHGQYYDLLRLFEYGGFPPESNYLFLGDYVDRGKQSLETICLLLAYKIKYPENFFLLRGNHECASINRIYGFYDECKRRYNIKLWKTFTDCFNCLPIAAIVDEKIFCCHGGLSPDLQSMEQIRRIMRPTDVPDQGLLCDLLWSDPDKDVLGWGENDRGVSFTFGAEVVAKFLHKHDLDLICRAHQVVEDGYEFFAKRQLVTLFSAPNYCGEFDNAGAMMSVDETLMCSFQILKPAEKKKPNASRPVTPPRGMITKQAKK

Biological target: Xenopus PP1 (Xenopus laevis (endogenous in oocytes)) (UniProt P36874)
Experiment: co-IP; lysates of Xenopus oocytes micro-injected with cRNA; IP with anti-XePP1 antibodies and Sepharose-protein G; blot with anti-HA; kinetic, band 3 h after microinjection

B1: HA-tagged PIP region of PfRCC-PIP, wild type, expressed in Xenopus oocytes (domain or fragment, UniProt Q8I2V4 863-1108)
chain: DEYYEENEQDNDDDDDDDEDDGEDDDDDEDDDDEDDDHHHDDNNDDNKYHIVNYDDDTNNEYEDEESFLSTNFYGEKNNSDNINHKNIIIINKKVSDKDNIVLKSSLKKSSSSDGIKKSVSFSKYVYDLAKNNYEPMNFKSFDDITMSEMDQDDNINVTIPEHTFSQSTNKKIYEKDMNNDTSDNTLDTINNYESTFEMKDNLKEKKDNQGKDLLNSHKQNEKEVIQINHLITNMNKNNTLKEELK
- binding: binds
